Assay results reported in publication doi:10.1101/2022.04.25.489402.
These are yes or no findings as the source states them, for the method shown. In cells and extracts the contact can be indirect. Some results given as binding are weak or reduced against the parent protein; the word gives no strength.

Amino acid sequences for entries named in this document (tags omitted).
UniProt O60248: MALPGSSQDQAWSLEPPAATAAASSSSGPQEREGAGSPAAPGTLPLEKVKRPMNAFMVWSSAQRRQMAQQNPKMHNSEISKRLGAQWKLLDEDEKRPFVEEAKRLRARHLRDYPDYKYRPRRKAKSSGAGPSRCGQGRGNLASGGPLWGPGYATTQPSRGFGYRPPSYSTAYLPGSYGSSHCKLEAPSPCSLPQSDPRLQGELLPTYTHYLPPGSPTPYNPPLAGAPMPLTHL
UniProt Q8NE71: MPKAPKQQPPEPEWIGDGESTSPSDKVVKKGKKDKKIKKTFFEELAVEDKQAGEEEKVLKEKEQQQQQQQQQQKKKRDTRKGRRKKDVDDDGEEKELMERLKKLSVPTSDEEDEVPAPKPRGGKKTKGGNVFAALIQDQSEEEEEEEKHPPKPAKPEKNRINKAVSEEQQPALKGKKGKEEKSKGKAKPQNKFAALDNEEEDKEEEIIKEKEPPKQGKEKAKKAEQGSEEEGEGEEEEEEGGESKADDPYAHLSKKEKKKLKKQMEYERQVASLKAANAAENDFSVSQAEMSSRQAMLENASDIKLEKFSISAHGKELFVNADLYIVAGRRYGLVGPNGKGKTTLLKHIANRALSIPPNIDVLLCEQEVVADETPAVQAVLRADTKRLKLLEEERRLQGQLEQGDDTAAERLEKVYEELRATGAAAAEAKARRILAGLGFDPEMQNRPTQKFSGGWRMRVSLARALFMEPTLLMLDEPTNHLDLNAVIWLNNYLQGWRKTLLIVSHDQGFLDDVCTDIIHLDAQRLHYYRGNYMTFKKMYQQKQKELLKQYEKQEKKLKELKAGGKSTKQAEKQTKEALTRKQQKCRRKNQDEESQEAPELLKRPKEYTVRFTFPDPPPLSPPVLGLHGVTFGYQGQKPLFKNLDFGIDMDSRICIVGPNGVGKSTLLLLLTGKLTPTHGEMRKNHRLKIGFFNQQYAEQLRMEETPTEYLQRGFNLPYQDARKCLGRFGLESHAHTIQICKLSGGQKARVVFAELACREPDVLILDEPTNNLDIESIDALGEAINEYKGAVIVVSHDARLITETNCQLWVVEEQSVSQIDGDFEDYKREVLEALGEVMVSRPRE
UniProt Q01831: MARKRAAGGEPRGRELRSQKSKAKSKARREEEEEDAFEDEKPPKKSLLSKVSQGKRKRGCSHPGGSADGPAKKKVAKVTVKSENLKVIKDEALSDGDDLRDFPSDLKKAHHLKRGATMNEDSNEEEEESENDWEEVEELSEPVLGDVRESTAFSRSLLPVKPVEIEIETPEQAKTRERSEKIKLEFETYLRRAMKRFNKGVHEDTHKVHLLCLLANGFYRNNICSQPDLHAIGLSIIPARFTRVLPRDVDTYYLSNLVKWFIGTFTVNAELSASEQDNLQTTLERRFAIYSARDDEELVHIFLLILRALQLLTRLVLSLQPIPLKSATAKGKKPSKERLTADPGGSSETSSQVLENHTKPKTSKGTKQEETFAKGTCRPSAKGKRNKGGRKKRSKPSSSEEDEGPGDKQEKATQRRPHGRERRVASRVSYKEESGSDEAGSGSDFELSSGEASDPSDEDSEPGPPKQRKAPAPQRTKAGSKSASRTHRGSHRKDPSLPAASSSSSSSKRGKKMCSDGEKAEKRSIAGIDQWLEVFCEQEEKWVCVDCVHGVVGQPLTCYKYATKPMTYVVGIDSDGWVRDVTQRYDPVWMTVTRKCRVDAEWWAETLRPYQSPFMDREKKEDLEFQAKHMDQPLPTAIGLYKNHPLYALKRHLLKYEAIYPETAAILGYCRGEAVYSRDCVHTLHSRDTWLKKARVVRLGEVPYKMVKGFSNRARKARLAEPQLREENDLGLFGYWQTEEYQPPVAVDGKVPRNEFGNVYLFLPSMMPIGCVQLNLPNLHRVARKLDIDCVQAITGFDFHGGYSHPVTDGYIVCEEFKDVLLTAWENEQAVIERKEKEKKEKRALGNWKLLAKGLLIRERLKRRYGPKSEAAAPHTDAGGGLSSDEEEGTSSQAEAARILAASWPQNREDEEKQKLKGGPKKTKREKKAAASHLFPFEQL

B1: DKC1 (protein, UniProt O60832 1-514)
chain: MADAEVIILPKKHKKKKERKSLPEEDVAEIQHAEEFLIKPESKVAKLDTSQWPLLLKNFDKLNVRTTHYTPLACGSNPLKREIGDYIRTGFINLDKPSNPSSHEVVAWIRRILRVEKTGHSGTLDPKVTGCLIVCIERATRLVKSQQSAGKEYVGIVRLHNAIEGGTQLSRALETLTGALFQRPPLIAAVKRQLRVRTIYESKMIEYDPERRLGIFWVSCEAGTYIRTLCVHLGLLLGVGGQMQELRRVRSGVMSEKDHMVTMHDVLDAQWLYDNHKDESYLRRVVYPLEKLLTSHKRLVMKDSAVNAICYGAKIMLPGVLRYEDGIEVNQEIVVITTKGEAICMAIALMTTAVISTCDHGIVAKIKRVIMERDTYPRKWGLGPKASQKKLMIKQGLLDKHGKPTDSTPATWKQEYVDYSESAKKEVVAEVVKAPQVVAEAAKTAKRKRESESESDETPPAAPQLIKKEKKKSKKDKKAKAGLESGAEPGDGDSDTTKKKKKKKKAKEVELVSE

Target: FLAG-tagged SOX15 (human) (UniProt O60248)
Assay: co-IP

Molecule | binding
V5-tagged ABCF1 (from UniProt Q8NE71 1-845) | binds
XPC (from UniProt Q01831 1-940) | binds
B1 | binds
